In paper PMC7819943, “Rice protein-binding microarrays: a tool to detect cis-acting elements near promoter regions in rice”:
The list shows a part of the results.

Protein sequences, listed by entry. Tags and fused reporters are not part of them.
UniProt Q0JBA9, entry or part of it: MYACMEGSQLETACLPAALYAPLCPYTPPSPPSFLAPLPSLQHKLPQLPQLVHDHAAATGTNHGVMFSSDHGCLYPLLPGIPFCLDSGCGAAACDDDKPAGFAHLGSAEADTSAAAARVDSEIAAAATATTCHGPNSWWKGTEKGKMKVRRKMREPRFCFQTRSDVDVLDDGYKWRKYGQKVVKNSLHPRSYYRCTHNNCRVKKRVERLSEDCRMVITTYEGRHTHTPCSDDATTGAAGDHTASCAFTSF

molecular target: OsWRKY34 (Oryza sativa, UniProt Q0JBA9 1-250); assay: protein-binding microarray (RPBM); PBS, 2% BSA, 51.3 ng/ul salmon testes DNA, 50 uM zinc acetate, 200 nM TF, 25 C, 1 h; high values mean tight binding; details: protein: recombinant; tags: N-terminal polyhistidine and DsRed monomer fusion (pET32a); label: CyDye5-dUTP incorporated in the synthesized complementary strand; 3' TTTTT single-stranded linker to array surface; dsDNA, one strand shown
In short: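 Binding signal is defined as the fluorescence intensity of each feature in arbitrary units, read on an Axon 4000B scanner. Transcription factors with N-terminal polyhistidine and DsRed fusions came from E. coli BL21-CodonPlus and were purified on Ni–NTA. They were incubated at 200 nM for 1 h at 25 °C on a custom Agilent array that had been made double-stranded with Cy5-dUTP, with 50 µM zinc acetate present, and the array was washed.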

Sequence	binding signal
TTTCCAAGGGCCTAAGGGTTTCTTCTGTACAACAGTGGGGCGGAGTCACCTAGTGCAG	8530 fluorescence intensity (a.u.)
CGATCGCCTCCACCACCCGGAGCATCTCCTCGTACTCCTCCGGAGTCACCTAGTGCAG	8400 fluorescence intensity (a.u.)
CTGCATTTCGTCCCTGTTCTGCCGCCGACGAGCGACGATGCGGAGTCACCTAGTGCAG	8860 fluorescence intensity (a.u.)
CTTCTCCGGCTACGCGCCTCTCCCAACGAACGCCAACCCACGGAGTCACCTAGTGCAG	8750 fluorescence intensity (a.u.)
GCCAGTTAGGGACCTAGGGACTTGGGTTGGGCGGGAACTTCGGAGTCACCTAGTGCAG	14100 fluorescence intensity (a.u.)
TCACATGCATCCCTGACACGTCAGTATTTCGTTCCATAGCCGGAGTCACCTAGTGCAG	9190 fluorescence intensity (a.u.)
ACCTCTCGTAGCCTGACATGATCACATCTCTCGTCATTCCCGGAGTCACCTAGTGCAG	13700 fluorescence intensity (a.u.)
GAGGCCTTCTAGCTCCACATTTTGTTTTGCTTTTCTCAGTCGGAGTCACCTAGTGCAG	9850 fluorescence intensity (a.u.)
GCCGTGATGAGTCCGAACTCGCGTTGACCTATTGACTCGTCGGAGTCACCTAGTGCAG	11000 fluorescence intensity (a.u.)
AACCTCCCGTGTCGCGCGCGTCCATGGCGGCTACTAGTAGCGGAGTCACCTAGTGCAG	11000 fluorescence intensity (a.u.)
CTACTTTCATACTTATAAGATTTTACACCAAAGCTTTTTTCGGAGTCACCTAGTGCAG	8750 fluorescence intensity (a.u.)
CCACATAATTCCTATTTCCCATTCTCTTGCACTTATTCCACGGAGTCACCTAGTGCAG	8130 fluorescence intensity (a.u.)
GCTTACCAGAGTATACTAACATGTCTTCTAGATTATAATACGGAGTCACCTAGTGCAG	9600 fluorescence intensity (a.u.)
CTATTTTTTGTTGAAGTTTTTTGCACGGTCTAATTTCAAACGGAGTCACCTAGTGCAG	11600 fluorescence intensity (a.u.)
TCATTAATTTCATGTCTCCTCTAATTTCCTCCTGAACCCTCGGAGTCACCTAGTGCAG	8980 fluorescence intensity (a.u.)
GCACTTCTTCCACTTCTTCTATGATATGTTGAACATCATCCGGAGTCACCTAGTGCAG	10300 fluorescence intensity (a.u.)
GATCCTATTCTGACCTCGATATATATGTGGAATCGTTTTGCGGAGTCACCTAGTGCAG	9470 fluorescence intensity (a.u.)
TTATTATTTGTATTAATTTATTAGGATTTCTCTCATGCTTCGGAGTCACCTAGTGCAG	8200 fluorescence intensity (a.u.)
GACTCGCTCTCCGCCTCATCTCCCTCTCGTCAATCTCTCTCGGAGTCACCTAGTGCAG	9730 fluorescence intensity (a.u.)
TCCCGTGTGCCCTTGTCATTATTCTTCACCCTTTATCAGTCGGAGTCACCTAGTGCAG	11900 fluorescence intensity (a.u.)
TTAGCTTACCAACCCACTCTCCTCCTCCACTCACAGAAACCGGAGTCACCTAGTGCAG	8450 fluorescence intensity (a.u.)
TTCCTCTTCTCTTCTCGTCTCTTGTAGTAGTATATATTTACGGAGTCACCTAGTGCAG	8430 fluorescence intensity (a.u.)
CGCCGCCGCCGCCATTTCTGACTCTTTCTCCGCGGCGCGTCGGAGTCACCTAGTGCAG	9090 fluorescence intensity (a.u.)
TACATGTTGTACTCTGCCTTGTCTCTAATCTACGTTAATCCGGAGTCACCTAGTGCAG	11400 fluorescence intensity (a.u.)
GCGGTCTCCTCTCCTCCCTCCCTGCTCGCGCTCTCAGTCTCGGAGTCACCTAGTGCAG	9970 fluorescence intensity (a.u.)
TTTTCTTGTGTGGCCAAGATCTGATTTTTTTTCTCCTTTTCGGAGTCACCTAGTGCAG	11200 fluorescence intensity (a.u.)
CTGCCTGCCTGCTGCCTCTCTCGTCGTCTGCTTGCCTACCCGGAGTCACCTAGTGCAG	9250 fluorescence intensity (a.u.)

Sequence	binding signal
TGTTCTTGTTCTTATTATTTCATTTACCTGCTTTTTGATTCGGAGTCACCTAGTGCAG	16300 fluorescence intensity (a.u.)
TCCATACTTATTCACTGGATTTGTTTCTACTGATTTTTCCCGGAGTCACCTAGTGCAG	8230 fluorescence intensity (a.u.)
CATTGACTTTTTTAAACATGTTTGACTGTTCGTCTTATTCCGGAGTCACCTAGTGCAG	11500 fluorescence intensity (a.u.)
CGCTCCAGCCGCCGCCGTCGAGCCGTGTCGCCCCTGAGAACGGAGTCACCTAGTGCAG	8150 fluorescence intensity (a.u.)
AGATGTCAGGTTGTTAGGGTTGGGAATTCAGGTCAGATATCGGAGTCACCTAGTGCAG	10000 fluorescence intensity (a.u.)
GGGTGGGCAGTTTTTGGTGCACCCATGGGTTGCCACTACTCGGAGTCACCTAGTGCAG	12700 fluorescence intensity (a.u.)
GCCCTAACCATCACCACACATGAACCAAATGGAGCAAGATCGGAGTCACCTAGTGCAG	8530 fluorescence intensity (a.u.)
AATTCTCACTTGACTCATGATTATCATCTCTACTATCGAACGGAGTCACCTAGTGCAG	9990 fluorescence intensity (a.u.)
ACGCAGGATCCGAGTCAGTCAACGCATTCCAAGGGAGGGCCGGAGTCACCTAGTGCAG	8120 fluorescence intensity (a.u.)
ATTCTCTATCGTTTTGACCACAATGTATATTACTGTTTATCGGAGTCACCTAGTGCAG	8280 fluorescence intensity (a.u.)
GAAATACTGTAGGAGGTTCTATTGTGTATGCCATTTTATTCGGAGTCACCTAGTGCAG	8940 fluorescence intensity (a.u.)
TCCGCCCGCTTCTCTGGTTTCTCGGCGGTGTCTTTTACTCCGGAGTCACCTAGTGCAG	11600 fluorescence intensity (a.u.)
ACCGTTTTGCCATCAATTTGCATATCACATCAGTTAATTTCGGAGTCACCTAGTGCAG	10800 fluorescence intensity (a.u.)
AACCGTCAGTTTTCCTTGCTTGCTTCGCCGCGTTGCCTTTCGGAGTCACCTAGTGCAG	8840 fluorescence intensity (a.u.)
CGATGTTGACAATATACCTTGTCTGAAGAGCACCTCATGCCGGAGTCACCTAGTGCAG	8080 fluorescence intensity (a.u.)
CGTGCCACCAATTTCCTACCTGTCATTTGAATATCGAATTCGGAGTCACCTAGTGCAG	8300 fluorescence intensity (a.u.)
GGTCGCCATCCACCGCCACCACACCACCCGCCACGCACGTCGGAGTCACCTAGTGCAG	9260 fluorescence intensity (a.u.)
CTTCTCGGTTTTTTCCGTGCGGTCGAAGCATCGGTTCCTTCGGAGTCACCTAGTGCAG	8080 fluorescence intensity (a.u.)
TTCCTTTTCCGTTTTGATATTGGGTTATGTTGGTTGGTCTCGGAGTCACCTAGTGCAG	9800 fluorescence intensity (a.u.)
ACTATTACTACCTCAGTTTTGAAATGTATGACGTTGACTTCGGAGTCACCTAGTGCAG	11000 fluorescence intensity (a.u.)
CTCCATCCGCGGCGCATCCCATCTCGCCCCGGCGACTCGTCGGAGTCACCTAGTGCAG	8140 fluorescence intensity (a.u.)
ATGCGATTCAAATGGCCCTAAACTTTTTTTTTTCTCTACTCGGAGTCACCTAGTGCAG	9120 fluorescence intensity (a.u.)
GACGTATTGATTGTAGGAATAAGTCTTGGCTGGTTGGTCTCGGAGTCACCTAGTGCAG	8580 fluorescence intensity (a.u.)
ATCAACAACGTCACCCTCCGCATGCGTACTCATCTTCATCCGGAGTCACCTAGTGCAG	11700 fluorescence intensity (a.u.)
GATCTATGGGGATTTGGGGTGATGGTACTGAAATCAATAGCGGAGTCACCTAGTGCAG	9550 fluorescence intensity (a.u.)
CCCCATTGACGCCCACGCACGCCCACACCTCCCCATCAACCGGAGTCACCTAGTGCAG	11600 fluorescence intensity (a.u.)
GTCTATGGGCCGTGTGCTTTTCCGATTCTAATTCAGTTTTCGGAGTCACCTAGTGCAG	9940 fluorescence intensity (a.u.)

Already shown: an excerpt of the list.
Sequence	binding signal
CTTCTCGGTTTTTTCCGTGCGGTCGAAGCATCGGTTCCTTCGGAGTCACCTAGTGCAG	8080 fluorescence intensity (a.u.)
TTCCTTTTCCGTTTTGATATTGGGTTATGTTGGTTGGTCTCGGAGTCACCTAGTGCAG	9800 fluorescence intensity (a.u.)
ACTATTACTACCTCAGTTTTGAAATGTATGACGTTGACTTCGGAGTCACCTAGTGCAG	11000 fluorescence intensity (a.u.)
